Construct, isoform or probe ends are uncertain for at least one entry. For some of these results: A weaker result is weaker than the reference pair of the same experiment. For some of these results: At least one verdict was read from the data and is not stated in words by the source.

By UniProt entry, the sequences of proteins in these tests, tags left out.
UniProt P52926, whole entry, looked up, tested part not stated: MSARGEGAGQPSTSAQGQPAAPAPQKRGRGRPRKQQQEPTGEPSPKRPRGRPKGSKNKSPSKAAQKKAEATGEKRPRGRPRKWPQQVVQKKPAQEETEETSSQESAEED

The target in data set [1] is ATHP2 (AT-hook peptide 2) (UniProt P52926). The data set can be described thus: MS-CID-MS. The settings on record: 1:1 complex, [M+4H]4+, weakest of the three; residues 45-53; folded or branched DNA.
Data set [2] concerns the target ATHP1 (AT-hook peptide 1) (UniProt P52926). Briefly: native IMS-MS. The settings on record: 1:1 and 2:1 complexes; residues 26-34; folded or branched DNA.
The target of data set [3] is ATHP2 (AT-hook peptide 2) (UniProt P52926). The data set can be described thus: native IMS-MS. Particulars: 1:1 and 2:1 complexes; residues 45-53; folded or branched DNA.
Data set [4] addresses ATHP3 (AT-hook peptide 3) (UniProt P52926). The data set can be described thus: native IMS-MS. The settings on record: 1:1 and 2:1 complexes; residues 74-83; folded or branched DNA.

On to GGATATTGCCCCCGCAATATCC [FL876], for which, in data set [1], the binding result is listed as “binds more weakly”.
In the case of GGATATTGCCTCCGCAATATCC [FL876T1], the binding result in data set [2], in data set [3] and in data set [4] was “binds” throughout.
On to GGATATTGCCTTCGCAATATCC [FL876T2], for which the binding result in data set [2], in data set [3] and in data set [4] was “binds” in each case.
